# Measurements published in PMC11546224.
# Chains of the proteins cited; added tags and fusions are not shown.
# UniProt Q00613: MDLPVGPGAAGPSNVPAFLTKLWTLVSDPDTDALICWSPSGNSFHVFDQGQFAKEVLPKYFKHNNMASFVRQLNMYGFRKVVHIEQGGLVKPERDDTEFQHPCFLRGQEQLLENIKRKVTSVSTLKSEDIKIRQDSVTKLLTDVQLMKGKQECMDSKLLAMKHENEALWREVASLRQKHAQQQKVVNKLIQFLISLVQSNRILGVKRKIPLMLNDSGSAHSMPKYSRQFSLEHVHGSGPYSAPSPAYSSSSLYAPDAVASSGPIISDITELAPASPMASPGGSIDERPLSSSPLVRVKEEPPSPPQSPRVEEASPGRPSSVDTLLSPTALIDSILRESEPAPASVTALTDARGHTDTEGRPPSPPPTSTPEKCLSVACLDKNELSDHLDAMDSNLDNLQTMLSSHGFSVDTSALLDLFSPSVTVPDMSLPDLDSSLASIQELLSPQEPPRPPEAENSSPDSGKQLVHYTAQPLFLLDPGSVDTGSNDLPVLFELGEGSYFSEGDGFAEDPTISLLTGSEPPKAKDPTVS
# These are yes or no findings as the source states them, for the method shown. For some assays here: In cells and extracts the contact can be indirect. Some binding calls cover weakened binding; strength is not graded here.
# T1: dihydrolipoamide S-acetyltransferase (DLAT) (human (endogenous in MIA PaCa-2)) (UniProt P10515)
# T1 sequence: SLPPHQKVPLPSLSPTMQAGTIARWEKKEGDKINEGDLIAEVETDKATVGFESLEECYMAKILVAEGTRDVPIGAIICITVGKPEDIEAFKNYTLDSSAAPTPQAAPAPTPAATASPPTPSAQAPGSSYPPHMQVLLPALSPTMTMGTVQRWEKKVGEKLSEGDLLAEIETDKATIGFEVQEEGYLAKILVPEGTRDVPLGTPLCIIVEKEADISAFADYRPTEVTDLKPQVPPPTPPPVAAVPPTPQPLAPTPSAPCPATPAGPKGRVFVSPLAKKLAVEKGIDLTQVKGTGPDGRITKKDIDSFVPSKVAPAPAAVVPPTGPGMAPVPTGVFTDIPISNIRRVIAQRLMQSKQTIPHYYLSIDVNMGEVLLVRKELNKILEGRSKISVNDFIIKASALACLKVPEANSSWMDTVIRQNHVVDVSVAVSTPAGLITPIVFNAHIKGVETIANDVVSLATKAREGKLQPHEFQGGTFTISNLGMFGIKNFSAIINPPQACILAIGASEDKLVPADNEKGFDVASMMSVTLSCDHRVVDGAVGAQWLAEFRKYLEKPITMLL
# Legend:
# [1] = target: T1, dihydrolipoamide S-acetyltransferase (DLAT) (human (endogenous in MIA PaCa-2)); test: co-IP; 1 mg whole cell lysate (1% Triton X-100, 100 mM NaCl, 30 mM Tris-HCl pH 7.6) incubated with anti-DLAT or HSF1 antibodies at 4 °C overnight, Protein G MagBeads, immunoblotting; normal rabbit IgG as negative control; cells without or with copper treatment
# [2] = target: T1, dihydrolipoamide S-acetyltransferase (DLAT) (human (endogenous in MIA PaCa-2)); test: immunoprecipitation and nonreducing SDS-PAGE; HSF1-overexpressing HSF1-deficient MIA PaCa-2 cells treated with 1 mM CuCl2 for 12 h; beads boiled in loading buffer without β-mercaptoethanol, nonreducing SDS-PAGE, Western blotting
binding [1],binding [2],Molecule
binds,–,heat shock factor 1 (HSF1) (from UniProt Q00613 1-529)
–,binds,"dihydrolipoamide S-acetyltransferase (DLAT) (enzyme, UniProt P10515 87-647) SLPPHQKVPLPSLSPTMQAGTIARWEKKEGDKINEGDLIAEVETDKATVGFESLEECYMAKILVAEGTRDVPIGAIICITVGKPEDIEAFKNYTLDSSAAPTPQAAPAPTPAATASPPTPSAQAPGSSYPPHMQVLLPALSPTMTMGTVQRWEKKVGEKLSEGDLLAEIETDKATIGFEVQEEGYLAKILVPEGTRDVPLGTPLCIIVEKEADISAFADYRPTEVTDLKPQVPPPTPPPVAAVPPTPQPLAPTPSAPCPATPAGPKGRVFVSPLAKKLAVEKGIDLTQVKGTGPDGRITKKDIDSFVPSKVAPAPAAVVPPTGPGMAPVPTGVFTDIPISNIRRVIAQRLMQSKQTIPHYYLSIDVNMGEVLLVRKELNKILEGRSKISVNDFIIKASALACLKVPEANSSWMDTVIRQNHVVDVSVAVSTPAGLITPIVFNAHIKGVETIANDVVSLATKAREGKLQPHEFQGGTFTISNLGMFGIKNFSAIINPPQACILAIGASEDKLVPADNEKGFDVASMMSVTLSCDHRVVDGAVGAQWLAEFRKYLEKPITMLL"
